We go through five compounds from patent US5227487A, “Certain tricyclic and pentacyclic-hetero nitrogen rhodol dyes” (Molecular Probes, Inc., priority 1990, dated 1993).

Some entries repeat one wording, which the source may state once for all of them.

This series can be described thus: Chemical reactivity of rhodol dyes with model compounds. The settings on record: for reaction with 1-aminobutane: TLC or HPLC.

For `NNC(=O)CCc1cc2c(-c3ccccc3C(=O)O)c3cc4c5c(c3oc-2cc1=O)CCCN5CCC4` [Compound 49], the reaction with acetone entry (acetone) is “reacts”. For the compound `O=C(CCl)NCc1c2oc3c4c5c(cc3c(-c3ccccc3C(=O)O)c-2ccc1=O)CCCN5CCC4` [Compound 35], the “reaction with 2-mercaptoethanol” value is “reacts”. Take `O=C(ON1C(=O)CCC1=O)c1ccc(C(=O)O)c(-c2c3cc(Cl)c(=O)cc-3oc3c4c5c(cc23)CCCN5CCC4)c1` [Compound 29]: the “reaction with 1-aminobutane” value is listed as “reacts to form new products”. `O=C1CCc2cc3c(cc2O1)Oc1c(cc2c4c1CCCN4CCC2)C31OC(=O)c2ccccc21` (stereo not drawn) [Compound 63]: the “reaction with 1-aminobutane” value was “reacts to form new products”. For the same compound, for the setting “amines and hydrazine, to give 50 and 49”, the “reaction with amines and hydrazine” value is on record as “reacts”. Take `O=C(CI)NCCCCCNC(=O)CCc1cc2c(-c3ccccc3C(=O)O)c3cc4c5c(c3oc-2cc1=O)CCCN5CCC4` [Compound 44]: the “reaction with 2-mercaptoethanol” value was “reacts”.
